Experimental data reported in article PMC9030733.

The chains behind the UniProt entries cited, without tags or fusion partners. Residues count along the entry.
UniProt P18760: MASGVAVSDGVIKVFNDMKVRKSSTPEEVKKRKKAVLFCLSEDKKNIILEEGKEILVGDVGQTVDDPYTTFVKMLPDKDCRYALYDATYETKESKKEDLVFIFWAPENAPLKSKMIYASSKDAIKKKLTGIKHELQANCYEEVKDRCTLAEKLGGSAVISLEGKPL
UniProt P02469, residues 22-1786: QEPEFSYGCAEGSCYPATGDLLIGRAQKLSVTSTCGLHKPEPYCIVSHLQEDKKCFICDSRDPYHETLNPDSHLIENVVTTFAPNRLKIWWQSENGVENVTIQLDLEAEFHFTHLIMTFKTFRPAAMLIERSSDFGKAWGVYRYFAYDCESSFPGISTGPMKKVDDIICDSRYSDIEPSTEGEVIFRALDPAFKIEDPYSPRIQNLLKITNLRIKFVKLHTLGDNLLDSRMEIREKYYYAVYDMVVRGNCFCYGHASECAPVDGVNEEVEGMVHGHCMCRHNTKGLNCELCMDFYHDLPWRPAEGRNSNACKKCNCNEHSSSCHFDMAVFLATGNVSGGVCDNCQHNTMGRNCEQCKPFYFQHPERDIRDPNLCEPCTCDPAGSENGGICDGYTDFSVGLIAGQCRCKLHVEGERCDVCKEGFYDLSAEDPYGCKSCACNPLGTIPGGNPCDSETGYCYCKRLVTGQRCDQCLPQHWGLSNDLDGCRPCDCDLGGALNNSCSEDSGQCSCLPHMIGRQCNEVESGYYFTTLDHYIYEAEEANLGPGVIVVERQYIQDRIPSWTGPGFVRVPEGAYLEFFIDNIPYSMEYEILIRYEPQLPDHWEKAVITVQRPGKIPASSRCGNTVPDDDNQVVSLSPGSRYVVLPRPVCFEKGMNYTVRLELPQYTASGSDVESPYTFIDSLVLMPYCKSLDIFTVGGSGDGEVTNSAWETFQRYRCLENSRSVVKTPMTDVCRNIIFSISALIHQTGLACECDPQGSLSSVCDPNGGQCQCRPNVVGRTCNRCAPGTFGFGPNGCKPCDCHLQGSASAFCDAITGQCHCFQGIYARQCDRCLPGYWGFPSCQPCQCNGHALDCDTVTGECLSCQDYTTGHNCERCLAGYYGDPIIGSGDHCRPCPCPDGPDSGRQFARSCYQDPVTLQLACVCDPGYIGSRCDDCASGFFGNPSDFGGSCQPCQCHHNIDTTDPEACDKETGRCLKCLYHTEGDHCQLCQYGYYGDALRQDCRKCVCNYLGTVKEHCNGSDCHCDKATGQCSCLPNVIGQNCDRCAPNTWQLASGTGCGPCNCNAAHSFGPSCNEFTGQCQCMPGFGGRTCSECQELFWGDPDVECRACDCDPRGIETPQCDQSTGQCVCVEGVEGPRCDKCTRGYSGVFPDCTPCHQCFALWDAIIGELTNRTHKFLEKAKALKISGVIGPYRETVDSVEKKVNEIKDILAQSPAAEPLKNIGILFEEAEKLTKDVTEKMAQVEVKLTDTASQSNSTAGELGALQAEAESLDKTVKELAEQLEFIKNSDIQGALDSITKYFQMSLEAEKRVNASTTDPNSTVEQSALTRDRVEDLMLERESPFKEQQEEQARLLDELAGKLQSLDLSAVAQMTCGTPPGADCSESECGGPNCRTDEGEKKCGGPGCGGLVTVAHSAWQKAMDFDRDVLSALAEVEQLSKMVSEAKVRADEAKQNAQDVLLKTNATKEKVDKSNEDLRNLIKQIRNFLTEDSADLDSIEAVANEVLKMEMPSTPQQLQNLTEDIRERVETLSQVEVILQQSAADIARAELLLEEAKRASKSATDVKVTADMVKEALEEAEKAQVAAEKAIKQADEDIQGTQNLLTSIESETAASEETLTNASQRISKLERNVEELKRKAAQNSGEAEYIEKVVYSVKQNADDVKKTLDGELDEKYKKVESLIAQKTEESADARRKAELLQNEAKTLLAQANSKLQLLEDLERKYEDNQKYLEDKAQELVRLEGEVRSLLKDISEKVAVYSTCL
UniProt Q61292, residues 36-1799: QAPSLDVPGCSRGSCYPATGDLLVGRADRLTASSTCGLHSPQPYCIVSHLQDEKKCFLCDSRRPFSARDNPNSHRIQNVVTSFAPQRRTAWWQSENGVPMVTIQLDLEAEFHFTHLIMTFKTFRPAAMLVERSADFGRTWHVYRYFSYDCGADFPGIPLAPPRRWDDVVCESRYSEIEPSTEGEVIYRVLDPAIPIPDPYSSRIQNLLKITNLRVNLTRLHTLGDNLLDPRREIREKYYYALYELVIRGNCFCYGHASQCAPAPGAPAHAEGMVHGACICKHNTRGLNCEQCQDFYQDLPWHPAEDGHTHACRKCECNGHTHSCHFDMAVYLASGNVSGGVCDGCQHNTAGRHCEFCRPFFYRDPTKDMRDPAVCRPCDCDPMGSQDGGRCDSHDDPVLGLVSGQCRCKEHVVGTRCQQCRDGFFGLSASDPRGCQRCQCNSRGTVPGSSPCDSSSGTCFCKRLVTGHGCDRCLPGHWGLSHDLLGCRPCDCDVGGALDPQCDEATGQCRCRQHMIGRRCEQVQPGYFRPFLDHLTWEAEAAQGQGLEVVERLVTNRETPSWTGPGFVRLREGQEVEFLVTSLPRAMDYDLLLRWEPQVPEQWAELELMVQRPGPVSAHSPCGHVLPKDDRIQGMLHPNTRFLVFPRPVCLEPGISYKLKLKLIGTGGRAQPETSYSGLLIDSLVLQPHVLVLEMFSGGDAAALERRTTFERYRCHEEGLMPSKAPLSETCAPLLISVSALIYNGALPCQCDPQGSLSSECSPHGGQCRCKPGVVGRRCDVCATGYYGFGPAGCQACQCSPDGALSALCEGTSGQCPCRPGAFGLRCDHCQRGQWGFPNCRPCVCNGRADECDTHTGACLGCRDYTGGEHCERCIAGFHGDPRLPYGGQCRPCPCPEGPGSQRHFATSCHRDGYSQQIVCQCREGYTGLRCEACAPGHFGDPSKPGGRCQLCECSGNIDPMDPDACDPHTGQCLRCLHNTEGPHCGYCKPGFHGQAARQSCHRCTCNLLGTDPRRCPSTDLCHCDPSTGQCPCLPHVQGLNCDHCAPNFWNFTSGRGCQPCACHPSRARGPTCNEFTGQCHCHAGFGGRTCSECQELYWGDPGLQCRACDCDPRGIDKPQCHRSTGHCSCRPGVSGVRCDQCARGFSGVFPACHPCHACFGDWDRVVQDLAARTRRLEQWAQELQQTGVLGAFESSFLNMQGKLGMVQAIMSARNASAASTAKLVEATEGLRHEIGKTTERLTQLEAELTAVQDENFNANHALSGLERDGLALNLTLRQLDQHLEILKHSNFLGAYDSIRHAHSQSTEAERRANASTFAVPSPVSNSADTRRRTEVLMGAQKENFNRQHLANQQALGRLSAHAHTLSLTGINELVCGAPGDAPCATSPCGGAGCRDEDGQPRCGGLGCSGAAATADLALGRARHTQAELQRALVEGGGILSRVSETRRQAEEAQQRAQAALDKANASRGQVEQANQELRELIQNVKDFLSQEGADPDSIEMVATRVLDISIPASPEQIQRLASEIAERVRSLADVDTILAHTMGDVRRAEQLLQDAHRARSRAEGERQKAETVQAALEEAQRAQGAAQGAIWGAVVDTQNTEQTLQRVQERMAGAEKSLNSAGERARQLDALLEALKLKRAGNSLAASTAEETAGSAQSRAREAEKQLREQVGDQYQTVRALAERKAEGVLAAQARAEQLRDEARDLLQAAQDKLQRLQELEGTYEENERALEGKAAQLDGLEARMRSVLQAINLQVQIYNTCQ
UniProt Q64727: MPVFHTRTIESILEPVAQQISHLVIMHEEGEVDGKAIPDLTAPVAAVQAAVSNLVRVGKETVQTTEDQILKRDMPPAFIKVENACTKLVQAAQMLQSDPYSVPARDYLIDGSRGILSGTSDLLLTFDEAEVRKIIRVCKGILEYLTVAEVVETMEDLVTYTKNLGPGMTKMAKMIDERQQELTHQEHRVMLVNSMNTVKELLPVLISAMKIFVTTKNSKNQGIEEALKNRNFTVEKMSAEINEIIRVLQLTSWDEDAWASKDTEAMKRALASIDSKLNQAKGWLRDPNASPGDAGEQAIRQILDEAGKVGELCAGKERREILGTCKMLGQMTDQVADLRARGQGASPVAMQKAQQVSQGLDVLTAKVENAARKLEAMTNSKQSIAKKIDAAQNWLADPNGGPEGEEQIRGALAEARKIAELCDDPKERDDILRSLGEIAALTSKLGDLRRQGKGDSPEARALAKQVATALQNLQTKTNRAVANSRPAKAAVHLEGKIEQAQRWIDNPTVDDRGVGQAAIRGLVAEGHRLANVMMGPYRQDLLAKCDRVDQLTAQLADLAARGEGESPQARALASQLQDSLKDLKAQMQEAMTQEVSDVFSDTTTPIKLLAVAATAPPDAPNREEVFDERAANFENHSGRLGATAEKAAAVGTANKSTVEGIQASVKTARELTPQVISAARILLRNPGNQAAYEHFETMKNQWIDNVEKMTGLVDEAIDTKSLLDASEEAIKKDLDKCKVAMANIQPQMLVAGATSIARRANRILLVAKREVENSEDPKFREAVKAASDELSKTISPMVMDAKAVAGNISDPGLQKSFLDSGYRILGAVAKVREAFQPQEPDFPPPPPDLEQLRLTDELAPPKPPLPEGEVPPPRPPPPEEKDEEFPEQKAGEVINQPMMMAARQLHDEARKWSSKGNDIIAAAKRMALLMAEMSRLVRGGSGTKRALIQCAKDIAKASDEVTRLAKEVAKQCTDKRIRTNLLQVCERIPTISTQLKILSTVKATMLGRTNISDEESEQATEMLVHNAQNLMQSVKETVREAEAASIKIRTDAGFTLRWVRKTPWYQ
UniProt P02468, residues 34-1607: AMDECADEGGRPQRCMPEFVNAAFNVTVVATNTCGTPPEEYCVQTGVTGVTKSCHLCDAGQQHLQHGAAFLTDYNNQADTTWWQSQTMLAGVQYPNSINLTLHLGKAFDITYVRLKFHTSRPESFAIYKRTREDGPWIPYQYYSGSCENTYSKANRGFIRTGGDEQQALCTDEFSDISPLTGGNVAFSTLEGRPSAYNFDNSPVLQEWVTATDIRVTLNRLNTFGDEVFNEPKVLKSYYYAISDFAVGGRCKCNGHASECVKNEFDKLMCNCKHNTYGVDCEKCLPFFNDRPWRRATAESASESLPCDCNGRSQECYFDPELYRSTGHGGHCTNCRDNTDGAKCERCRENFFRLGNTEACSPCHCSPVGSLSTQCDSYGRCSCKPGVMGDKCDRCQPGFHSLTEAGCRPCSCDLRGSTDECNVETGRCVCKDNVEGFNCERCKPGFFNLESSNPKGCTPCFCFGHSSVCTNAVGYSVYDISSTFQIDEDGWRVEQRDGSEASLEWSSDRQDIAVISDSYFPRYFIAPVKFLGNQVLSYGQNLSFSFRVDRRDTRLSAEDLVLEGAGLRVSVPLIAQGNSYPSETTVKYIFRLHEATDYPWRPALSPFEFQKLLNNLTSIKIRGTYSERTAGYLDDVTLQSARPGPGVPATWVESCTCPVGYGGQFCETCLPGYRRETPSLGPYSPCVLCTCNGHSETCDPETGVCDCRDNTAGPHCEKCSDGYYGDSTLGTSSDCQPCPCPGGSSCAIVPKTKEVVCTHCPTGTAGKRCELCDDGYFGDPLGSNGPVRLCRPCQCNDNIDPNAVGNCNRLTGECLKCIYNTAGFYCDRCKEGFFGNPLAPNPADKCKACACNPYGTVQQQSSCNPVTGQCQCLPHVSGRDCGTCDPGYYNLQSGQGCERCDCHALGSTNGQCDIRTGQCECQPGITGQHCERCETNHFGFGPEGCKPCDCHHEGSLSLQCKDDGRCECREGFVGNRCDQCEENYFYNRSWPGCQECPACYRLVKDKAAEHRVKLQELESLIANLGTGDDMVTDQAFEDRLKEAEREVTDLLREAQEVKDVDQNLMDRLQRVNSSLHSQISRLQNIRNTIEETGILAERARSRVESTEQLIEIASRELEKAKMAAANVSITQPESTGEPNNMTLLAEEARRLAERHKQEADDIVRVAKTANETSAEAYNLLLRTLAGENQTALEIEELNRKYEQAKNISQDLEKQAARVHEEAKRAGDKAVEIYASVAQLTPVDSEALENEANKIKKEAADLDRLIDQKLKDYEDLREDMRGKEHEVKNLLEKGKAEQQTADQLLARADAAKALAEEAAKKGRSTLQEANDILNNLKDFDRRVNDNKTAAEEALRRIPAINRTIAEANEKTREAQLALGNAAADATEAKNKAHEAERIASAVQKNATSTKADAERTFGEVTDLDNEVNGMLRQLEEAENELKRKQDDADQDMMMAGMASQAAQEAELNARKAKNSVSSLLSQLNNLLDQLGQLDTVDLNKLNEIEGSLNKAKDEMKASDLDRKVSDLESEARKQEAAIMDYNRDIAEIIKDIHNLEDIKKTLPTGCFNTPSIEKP

T1: sClec4e-Fc (mouse) (UniProt Q9R0Q8)
T1 sequence: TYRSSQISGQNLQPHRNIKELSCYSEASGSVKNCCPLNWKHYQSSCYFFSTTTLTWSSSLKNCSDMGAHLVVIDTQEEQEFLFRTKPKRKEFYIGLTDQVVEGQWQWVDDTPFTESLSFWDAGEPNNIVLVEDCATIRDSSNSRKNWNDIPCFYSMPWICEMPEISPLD

T2: sNKG2D-Fc (mouse) (UniProt O54709)
T2 sequence: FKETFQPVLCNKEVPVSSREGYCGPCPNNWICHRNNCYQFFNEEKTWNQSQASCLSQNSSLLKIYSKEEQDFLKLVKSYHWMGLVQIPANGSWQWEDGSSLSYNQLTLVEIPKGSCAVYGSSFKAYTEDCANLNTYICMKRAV

T3: sDectin-1-Fc (mouse) (UniProt Q6QLQ4)
T3 sequence: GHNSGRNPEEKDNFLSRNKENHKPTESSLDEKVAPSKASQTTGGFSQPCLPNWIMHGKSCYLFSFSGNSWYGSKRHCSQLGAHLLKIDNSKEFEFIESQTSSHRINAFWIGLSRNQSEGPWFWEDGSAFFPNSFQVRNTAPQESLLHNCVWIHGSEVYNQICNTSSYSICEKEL


How the values were obtained:
Assay in all cases: affinity purification with mass spectrometry; extracts of AT3 cells overexpressing CLR-Fc fusion protein (and control AT3 cells) precipitated with protein A-Sepharose, 2 h; lysis and wash buffer 50 mM Tris HCl pH 8.0, 300 mM NaCl, 1 mM MgCl2, 10 mM KCl, 0.5% NP-40, 10% glycerol; MS/MS of the co-precipitated proteins
sClec4e-Fc (mouse) = target: T1, sClec4e-Fc (mouse)
sNKG2D-Fc (mouse) = target: T2, sNKG2D-Fc (mouse)
sDectin-1-Fc (mouse) = target: T3, sDectin-1-Fc (mouse)

binding (sClec4e-Fc (mouse)) | binding (sNKG2D-Fc (mouse)) | binding (sDectin-1-Fc (mouse)) | Molecule
binds | binds | binds | Cofilin-1 (from UniProt P18760 1-166)
binds | binds | binds | Laminin subunit beta-1 (from UniProt P02469 22-1786)
binds | binds | binds | Laminin subunit beta-2 (from UniProt Q61292 36-1799)
– | – | binds | Vinculin (from UniProt Q64727 1-1066)
– | – | binds | Annexin A3 (protein, UniProt O35639 1-323) MASIWVGPRGTIKDYPGFSPSVDAEAIRKAIRGLGTDEKTLINILTERSNAQRQLIVKQYQAAYEQELKDDLKGDLSGHFEHVMVALVTAPALFDAKQLKKSMKGTGTDEDALIEILTTRSSRQMKEISQAYYTVYKKSLGDDISSETSGDFRKALLTLADGRRDESLKVDEHLAKKDAQILYNAGENKWGTDEDKFTEVLCLRSFPQLKLTFDEYRNISQKDIEDSIKGELSGHFEDLLLAIVHCARNTPAFLAERLHQALKGAGTDEFTLNRIMVSRSEIDLLDIRHEFKKHYGYSLYSAIQSDTSGDYRTVLLKICGEDD

The remaining lines, values behind:

Molecule | binding (sClec4e-Fc (mouse)) | binding (sNKG2D-Fc (mouse)) | binding (sDectin-1-Fc (mouse))
Clathrin light chain A (from UniProt B1AWE0) | binds | binds | –
Laminin subunit gamma-1 (from UniProt P02468 34-1607) | binds | binds | binds
4F2 cell-surface antigen heavy chain (from UniProt P10852 1-526) | binds | – | –
Nidogen-1 (endogenous) (protein, UniProt P10493 29-1245) LNRQELFPFGPGQGDLELEAGDDVVSPSLELIGELSFYDRTDITSVYVTTNGIIAMSEPPATEYHPGTFPPSFGSVAPFLADLDTTDGLGNVYYREDLSPFIIQMAAEYVQRGFPEVSFQPTSVVVVTWESVAPYGGPSSSPAEEGKRNTFQAVLASSNSSSYAIFLYPEDGLQFFTTFSKKDESQVPAVVGFSKGLVGFLWKSNGAYNIFANDRESIENLAKSSNAGHQGVWVFEIGSPATAKGVVSADVNLDLDDDGADYEDEDYDLVTSHLGLEDVATPSPSHSPRRGYPDPHNVPRILSPGYEATERPRGVPTERTRSFQLPAERFPQHHPQVIDVDEVEETGVVFSYNTGSQQTCANNRHQCSVHAECRDYATGFCCRCVANYTGNGRQCVAEGSPQRVNGKVKGRIFVGSSQVPVVFENTDLHSYVVMNHGRSYTAISTIPETVGYSLLPLAPIGGIIGWMFAVEQDGFKNGFSITGGEFTRQAEVTFLGHPGKLVLKQQFSGIDEHGHLTISTELEGRVPQIPYGASVHIEPYTELYHYSSSVITSSSTREYTVMEPDQDGAAPSHTHIYQWRQTITFQECAHDDARPALPSTQQLSVDSVFVLYNKEERILRYALSNSIGPVRDGSPDALQNPCYIGTHGCDSNAACRPGPGTQFTCECSIGFRGDGQTCYDIDECSEQPSRCGNHAVCNNLPGTFRCECVEGYHFSDRGTCVAAEDQRPINYCETGLHNCDIPQRAQCIYMGGSSYTCSCLPGFSGDGRACRDVDECQHSRCHPDAFCYNTPGSFTCQCKPGYQGDGFRCMPGEVSKTRCQLEREHILGAAGGADAQRPTLQGMFVPQCDEYGHYVPTQCHHSTGYCWCVDRDGRELEGSRTPPGMRPPCLSTVAPPIHQGPVVPTAVIPLPPGTHLLFAQTGKIERLPLERNTMKKTEAKAFLHIPAKVIIGLAFDCVDKVVYWTDISEPSIGRASLHGGEPTTIIRQDLGSPEGIALDHLGRTIFWTDSQLDRIEVAKMDGTQRRVLFDTGLVNPRGIVTDPVRGNLYWTDWNRDNPKIETSHMDGTNRRILAQDNLGLPNGLTFDAFSSQLCWVDAGTHRAECLNPAQPGRRKVLEGLQYPFAVTSYGKNLYYTDWKTNSVIAMDLAISKEMDTFHPHKQTRLYGITIALSQCPQGHNYCSVNNGGCTHLCLPTPGSRTCRCPDNTLGVDCIERK | binds | – | binds
Calnexin (protein, UniProt P35564 21-591) HDGHDDDAIDIEDDLDDVIEEVEDSKSKSDASTPPSPKVTYKAPVPTGEVYFADSFDRGSLSGWILSKAKKDDTDDEIAKYDGKWEVDEMKETKLPGDKGLVLMSRAKHHAISAKLNKPFLFDTKPLIVQYEVNFQNGIECGGAYVKLLSKTAELSLDQFHDKTPYTIMFGPDKCGEDYKLHFIFRHKNPKTGVYEEKHAKRPDADLKTYFTDKKTHLYTLILNPDNSFEILVDQSVVNSGNLLNDMTPPVNPSREIEDPEDRKPEDWDERPKIADPDAVKPDDWDEDAPSKIPDEEATKPEGWLDDEPEYIPDPDAEKPEDWDEDMDGEWEAPQIANPKCESAPGCGVWQRPMIDNPNYKGKWKPPMIDNPNYQGIWKPRKIPNPDFFEDLEPFKMTPFSAIGLELWSMTSDIFFDNFIISGDRRVVDDWANDGWGLKKAADGAAEPGVVLQMLEAAEERPWLWVVYILTVALPVFLVILFCCSGKKQSNAMEYKKTDAPQPDVKDEEGKEEEKNKRDEEEEEEKLEEKQKSDAEEDGVTGSQDEEDSKPKAEEDEILNRSPRNRKPRRE | binds | – | –
Protein S100-A11 (protein, UniProt P50543 1-98) MPTETERCIESLIAVFQKYSGKDGNNTQLSKTEFLSFMNTELAAFTKNQKDPGVLDRMMKKLDLNCDGQLDFQEFLNLIGGLAIACHDSFIQTSQKRI | – | – | binds

No constants are given. Whether binding was seen depends on the method and setting. Binding seen in cells or lysates may run through a third protein. These calls come from enrichment with a bait or labelling near it, and not all partners need be listed. Sequences can lack the tags named with a protein.
